Literature values as cited in publication PMC3946900 (Pharmaceutical research, 2013).

Test system: P-gp (mdr1)
Conditions: mouse, in vivo; cited from earlier work

For `CN1CC[C@]23c4c5ccc(O)c4O[C@H]2[C@@H](O)C=C[C@H]3[C@H]1C5` [Morphine], the “Brain Conc. Ratio mdr1(−/−)/mdr1(+/+)” value is listed as 1.7 and the “Liver Conc. Ratio mdr1(−/−)/mdr1(+/+)” value is listed as 1.1.
